In patent US12111318B2, “Method for treating cancer based on expression levels of translationally controlled tumor protein (TCTP)” (KOREA UNIVERSITY RESEARCH AND BUSINESS FOUNDATION, priority 2020, dated 2024):
At least one compound was matched to its structure with a doubt left.

Tested on: CT26 P3 tumor
Assay: ICB-refractory CT26 P3 tumor-bearing mice, anti-PD-L1 antibody alone or combined with DHA
Assay type: in vivo, mouse
Details: combined therapy with anti-PD-L1 and DHA, compared to anti-PD-L1 or DHA alone
Protocol: Next, the present inventors expanded the preclinical therapeutic value of DHA in ICB therapy. To do this, ICB-refractory CT26 P3 tumor-bearing mice were administered anti-PD-L1 antibody alone or combined with DHA (FIG. 7G).

SMILES: C[C@H]1[C@@H](O)O[C@@H]2O[C@@]3(C)CC[C@H]4[C@H](C)CC[C@@H]1[C@@]24OO3 [DHA, dihydroartemisinin]
- Therapeutic effect: remarkable therapeutic effect
